{"source": "PubChem BioAssay AID686943 (Drosophila RNAi Screening Center, 2013)", "test": "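Fly genes whose loss alters ERK activation after insulin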 (primary screen)", "cell system": "Drosophila S2R+ haemocyte-like cells expressing YFP-tagged ERK (Rolled)", "knock-down reagent": "long dsRNA against Drosophila genes", "challenge": "insulin stimulation versus unstimulated cells; dose and duration not given", "measurement": "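Per-plate z-scores of phospho-ERK immunostaining normalised to YFP-tagged ERK, measured with and without insulin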", "direction": "replicate 1, z-score of dpERK with insulin and replicate 2, z-score of dpERK with insulin: higher = more active ERK per ERK-YFP after insulin", "note": "The screen tested about 23,000 reagents; this is a random part of those that have a named target and a result. 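Extra replicates exist only for a retested subset of genes; insulin dose and duration not given; both raised and lowered dpERK matter.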 Names joined by + are all predicted targets of the reagent. Further read-outs or replicates are left out here. Not stated in the record: the amount of reagent, the time to read-out."}
The opening 2 entries, to show the layout:
{"gene knocked down": "CG18094", "replicate 1, z-score of dpERK with insulin": -0.08, "replicate 2, z-score of dpERK with insulin": 0.36}
{"gene knocked down": "CG8490", "replicate 1, z-score of dpERK with insulin": 0.1, "replicate 2, z-score of dpERK with insulin": 0.75}

Results, from the start:
{"gene knocked down": "CG18094", "replicate 1, z-score of dpERK with insulin": -0.08, "replicate 2, z-score of dpERK with insulin": 0.36}
{"gene knocked down": "CG8490", "replicate 1, z-score of dpERK with insulin": 0.1, "replicate 2, z-score of dpERK with insulin": 0.75}
{"gene knocked down": "CR18275 + CG13373", "replicate 1, z-score of dpERK with insulin": -0.32, "replicate 2, z-score of dpERK with insulin": 0}
{"gene knocked down": "CG9330", "replicate 1, z-score of dpERK with insulin": 0.34, "replicate 2, z-score of dpERK with insulin": -0.06}
{"gene knocked down": "lncRNA:CR43613", "replicate 1, z-score of dpERK with insulin": -0.22, "replicate 2, z-score of dpERK with insulin": 0.29}
{"gene knocked down": "Cdlc2", "replicate 1, z-score of dpERK with insulin": -0.89, "replicate 2, z-score of dpERK with insulin": -1.05}
{"gene knocked down": "Cyp6t2Psi", "replicate 1, z-score of dpERK with insulin": -0.4, "replicate 2, z-score of dpERK with insulin": 2.59}
{"gene knocked down": "AstA", "replicate 1, z-score of dpERK with insulin": 0.33, "replicate 2, z-score of dpERK with insulin": 0.12}
{"gene knocked down": "Scm", "replicate 1, z-score of dpERK with insulin": 0.07, "replicate 2, z-score of dpERK with insulin": -0.64}
{"gene knocked down": "RecQ4", "replicate 1, z-score of dpERK with insulin": 0.27, "replicate 2, z-score of dpERK with insulin": 0.04}
{"gene knocked down": "mRpL11", "replicate 1, z-score of dpERK with insulin": -0.52, "replicate 2, z-score of dpERK with insulin": 0.78}
{"gene knocked down": "muskelin", "replicate 1, z-score of dpERK with insulin": -1.01, "replicate 2, z-score of dpERK with insulin": -0.11}
